Test results as given in paper PMC4112642, “Tomato PYR/PYL/RCAR abscisic acid receptors show high expression in root, differential sensitivity to the abscisic acid agonist quinabactin, and the capability to enhance plant drought resistance” (Journal of Experimental Botany, 2014).
No constants are given. Whether binding was seen depends on the method and setting. For some of these results: A result given as binding can be weak or reduced; the word gives no strength. Sequences can lack the tags named with a protein.

Amino acid sequences for entries named in this document (tags omitted).
UniProt O04719: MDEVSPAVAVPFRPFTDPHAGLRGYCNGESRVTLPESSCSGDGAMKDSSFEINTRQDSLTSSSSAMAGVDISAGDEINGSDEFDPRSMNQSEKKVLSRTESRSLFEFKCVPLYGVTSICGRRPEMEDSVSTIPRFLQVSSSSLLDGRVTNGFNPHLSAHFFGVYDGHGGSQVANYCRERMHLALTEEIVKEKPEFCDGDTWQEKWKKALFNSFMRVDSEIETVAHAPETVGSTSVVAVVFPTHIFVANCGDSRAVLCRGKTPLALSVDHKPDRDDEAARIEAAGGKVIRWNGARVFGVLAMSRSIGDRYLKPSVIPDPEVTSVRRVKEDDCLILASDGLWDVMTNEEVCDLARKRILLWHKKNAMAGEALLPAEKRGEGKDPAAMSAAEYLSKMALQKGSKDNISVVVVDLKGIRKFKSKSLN

What was measured:
Assay in all cases: two-hybrid; receptors fused to the GAL4 DNA-binding domain (baits), PP2Cs fused to the GAL4 activation domain (preys); growth on media lacking histidine and adenine, supplemented or not with 50 uM ABA; dilutions 10^-1, 10^-2, 10^-3 of saturated cultures spotted
[1] = target: Sl12g055990 tomato PYR/PYL/RCAR ABA receptor, GAL4 DNA-binding domain fusion (tomato (Solanum lycopersicum))
[2] = target: Sl03g007310 tomato PYR/PYL/RCAR ABA receptor, GAL4 DNA-binding domain fusion (tomato (Solanum lycopersicum))
[3] = target: Sl03g095780 tomato PYR/PYL/RCAR ABA receptor, GAL4 DNA-binding domain fusion (tomato (Solanum lycopersicum))
[4] = target: Sl06g050500 tomato PYR/PYL/RCAR ABA receptor, GAL4 DNA-binding domain fusion (tomato (Solanum lycopersicum))
[5] = target: Sl06g061180 tomato PYR/PYL/RCAR ABA receptor, GAL4 DNA-binding domain fusion (tomato (Solanum lycopersicum))
[6] = target: Sl08g076960 tomato PYR/PYL/RCAR ABA receptor, GAL4 DNA-binding domain fusion (tomato (Solanum lycopersicum))
[7] = target: Sl09g015380 tomato PYR/PYL/RCAR ABA receptor, GAL4 DNA-binding domain fusion (tomato (Solanum lycopersicum))

binding [1]	binding [2]	binding [3]	binding [4]	binding [5]	binding [6]	binding [7]	Molecule
binds							Arabidopsis clade A PP2C ABI2, GAL4 activation domain fusion (from UniProt O04719 1-423) (enzyme)
binds	binds						Arabidopsis clade A PP2C HAB2, GAL4 activation domain fusion (enzyme, UniProt Q9LNP9 1-511) MEEISPAVALTLGLANTMCDSGISSTFDISELENVTDAADMLCNQKRQRYSNGVVDCIMGSVSEEKTLSEVRSLSSDFSVTVQESEEDEPLVSDATIISEGLIVVDARSEISLPDTVETDNGRVLATAIILNETTIEQVPTAEVLIASLNHDVNMEVATSEVVIRLPEENPNVARGSRSVYELECIPLWGTISICGGRSEMEDAVRALPHFLKIPIKMLMGDHEGMSPSLPYLTSHFFGVYDGHGGAQVADYCHDRIHSALAEEIERIKEELCRRNTGEGRQVQWEKVFVDCYLKVDDEVKGKINRPVVGSSDRMVLEAVSPETVGSTAVVALVCSSHIIVSNCGDSRAVLLRGKDSMPLSVDHKPDREDEYARIEKAGGKVIQWQGARVSGVLAMSRSIGDQYLEPFVIPDPEVTFMPRAREDECLILASDGLWDVMSNQEACDFARRRILAWHKKNGALPLAERGVGEDQACQAAAEYLSKLAIQMGSKDNISIIVIDLKAQRKFKTRS
no binding	no binding	no binding	no binding	no binding	no binding	no binding	Arabidopsis PP2C AHG1, GAL4 activation domain fusion (enzyme, UniProt Q9FLI3 1-416) MTEIYRTISTGRGDDVSPTKCRERRRRRIEMRRQAAVFGEPSSSRNRDRTDMEVYSSFDVPLRKQARRSEIGGLPADIGGFLAPPAASSCQKSEAPVWKGEETEDEPLYGIVSVMGRSRKMEDSVTVKPNLCKPEVNRQRPVHFFAVYDGHGGSQVSTLCSTTMHTFVKEELEQNLEEEEEGSENDVVERKWRGVMKRSFKRMDEMATSTCVCGTSVPLCNCDPREAAISGSTAVTAVLTHDHIIVANTGDSRAVLCRNGMAIPLSNDHKPDRPDERARIEAAGGRVLVVDGARVEGILATSRAIGDRYLKPMVAWEPEVTFMRRESGDECLVLASDGLWDVLSSQLACDIARFCLREETPSSLDLNRMAQEDDNDGEQNPSRSVLAATLLTRLALGRQSSDNISVVVIDLKNSSQ
